In test [1] the target is ATRX (endogenous) (human (endogenous in MO3.13 and HEK293 Flp-In T-REx)) (UniProt P46100). The test can be described thus: proximity ligation; PLA (Duolink) between endogenous ATRX and endogenous proteins in fixed MO3.13 human glial cells; any one protein probed alone as control.
For test [2] the target is unchanged. Kind of test: proximity ligation; PLA (Duolink) between endogenous ATRX and tagged, exogenous proteins (FLAG-CCDC71 and FLAG-FAM207A in HEK293 Flp-In T-REx cells; myc-SLF2).
For test [3], the target named is FLAG-CCDC71 (exogenous) (UniProt Q8IV32). Kind of test: co-IP; anti-FLAG immunoprecipitation of exogenous CCDC71 from doxycycline-induced cells; lysate sonicated and MNase-digested; Protein G magnetic beads; western blot. (A western blot detects proteins with antibodies after separation by electrophoresis.)
For test [4], the target named is T1, Recombinant FAM207A (in vitro translated, with biotinylated lysine) (UniProt Q9NSI2).
T1 sequence (chain, biotinylated lysine (incorporated during translation)): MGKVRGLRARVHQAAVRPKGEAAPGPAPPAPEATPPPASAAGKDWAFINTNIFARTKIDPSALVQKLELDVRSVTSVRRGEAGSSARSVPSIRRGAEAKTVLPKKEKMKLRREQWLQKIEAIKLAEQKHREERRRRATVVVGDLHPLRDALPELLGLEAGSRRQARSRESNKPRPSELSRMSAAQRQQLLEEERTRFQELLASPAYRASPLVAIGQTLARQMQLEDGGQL
Kind of test: pull-down; in vitro translated FAM207A with biotinylated lysine held on Strep-Tactin (streptavidin) resin in BC150, 20 pmol recombinant ATRX added, 1 hr at room temperature, washes with BC150 + 0.1% NP40, BC300 + 0.1% NP40 and BC150; western blot; only the binder purified.

Chains of the proteins cited; added tags and fusions are not shown.
UniProt P46100: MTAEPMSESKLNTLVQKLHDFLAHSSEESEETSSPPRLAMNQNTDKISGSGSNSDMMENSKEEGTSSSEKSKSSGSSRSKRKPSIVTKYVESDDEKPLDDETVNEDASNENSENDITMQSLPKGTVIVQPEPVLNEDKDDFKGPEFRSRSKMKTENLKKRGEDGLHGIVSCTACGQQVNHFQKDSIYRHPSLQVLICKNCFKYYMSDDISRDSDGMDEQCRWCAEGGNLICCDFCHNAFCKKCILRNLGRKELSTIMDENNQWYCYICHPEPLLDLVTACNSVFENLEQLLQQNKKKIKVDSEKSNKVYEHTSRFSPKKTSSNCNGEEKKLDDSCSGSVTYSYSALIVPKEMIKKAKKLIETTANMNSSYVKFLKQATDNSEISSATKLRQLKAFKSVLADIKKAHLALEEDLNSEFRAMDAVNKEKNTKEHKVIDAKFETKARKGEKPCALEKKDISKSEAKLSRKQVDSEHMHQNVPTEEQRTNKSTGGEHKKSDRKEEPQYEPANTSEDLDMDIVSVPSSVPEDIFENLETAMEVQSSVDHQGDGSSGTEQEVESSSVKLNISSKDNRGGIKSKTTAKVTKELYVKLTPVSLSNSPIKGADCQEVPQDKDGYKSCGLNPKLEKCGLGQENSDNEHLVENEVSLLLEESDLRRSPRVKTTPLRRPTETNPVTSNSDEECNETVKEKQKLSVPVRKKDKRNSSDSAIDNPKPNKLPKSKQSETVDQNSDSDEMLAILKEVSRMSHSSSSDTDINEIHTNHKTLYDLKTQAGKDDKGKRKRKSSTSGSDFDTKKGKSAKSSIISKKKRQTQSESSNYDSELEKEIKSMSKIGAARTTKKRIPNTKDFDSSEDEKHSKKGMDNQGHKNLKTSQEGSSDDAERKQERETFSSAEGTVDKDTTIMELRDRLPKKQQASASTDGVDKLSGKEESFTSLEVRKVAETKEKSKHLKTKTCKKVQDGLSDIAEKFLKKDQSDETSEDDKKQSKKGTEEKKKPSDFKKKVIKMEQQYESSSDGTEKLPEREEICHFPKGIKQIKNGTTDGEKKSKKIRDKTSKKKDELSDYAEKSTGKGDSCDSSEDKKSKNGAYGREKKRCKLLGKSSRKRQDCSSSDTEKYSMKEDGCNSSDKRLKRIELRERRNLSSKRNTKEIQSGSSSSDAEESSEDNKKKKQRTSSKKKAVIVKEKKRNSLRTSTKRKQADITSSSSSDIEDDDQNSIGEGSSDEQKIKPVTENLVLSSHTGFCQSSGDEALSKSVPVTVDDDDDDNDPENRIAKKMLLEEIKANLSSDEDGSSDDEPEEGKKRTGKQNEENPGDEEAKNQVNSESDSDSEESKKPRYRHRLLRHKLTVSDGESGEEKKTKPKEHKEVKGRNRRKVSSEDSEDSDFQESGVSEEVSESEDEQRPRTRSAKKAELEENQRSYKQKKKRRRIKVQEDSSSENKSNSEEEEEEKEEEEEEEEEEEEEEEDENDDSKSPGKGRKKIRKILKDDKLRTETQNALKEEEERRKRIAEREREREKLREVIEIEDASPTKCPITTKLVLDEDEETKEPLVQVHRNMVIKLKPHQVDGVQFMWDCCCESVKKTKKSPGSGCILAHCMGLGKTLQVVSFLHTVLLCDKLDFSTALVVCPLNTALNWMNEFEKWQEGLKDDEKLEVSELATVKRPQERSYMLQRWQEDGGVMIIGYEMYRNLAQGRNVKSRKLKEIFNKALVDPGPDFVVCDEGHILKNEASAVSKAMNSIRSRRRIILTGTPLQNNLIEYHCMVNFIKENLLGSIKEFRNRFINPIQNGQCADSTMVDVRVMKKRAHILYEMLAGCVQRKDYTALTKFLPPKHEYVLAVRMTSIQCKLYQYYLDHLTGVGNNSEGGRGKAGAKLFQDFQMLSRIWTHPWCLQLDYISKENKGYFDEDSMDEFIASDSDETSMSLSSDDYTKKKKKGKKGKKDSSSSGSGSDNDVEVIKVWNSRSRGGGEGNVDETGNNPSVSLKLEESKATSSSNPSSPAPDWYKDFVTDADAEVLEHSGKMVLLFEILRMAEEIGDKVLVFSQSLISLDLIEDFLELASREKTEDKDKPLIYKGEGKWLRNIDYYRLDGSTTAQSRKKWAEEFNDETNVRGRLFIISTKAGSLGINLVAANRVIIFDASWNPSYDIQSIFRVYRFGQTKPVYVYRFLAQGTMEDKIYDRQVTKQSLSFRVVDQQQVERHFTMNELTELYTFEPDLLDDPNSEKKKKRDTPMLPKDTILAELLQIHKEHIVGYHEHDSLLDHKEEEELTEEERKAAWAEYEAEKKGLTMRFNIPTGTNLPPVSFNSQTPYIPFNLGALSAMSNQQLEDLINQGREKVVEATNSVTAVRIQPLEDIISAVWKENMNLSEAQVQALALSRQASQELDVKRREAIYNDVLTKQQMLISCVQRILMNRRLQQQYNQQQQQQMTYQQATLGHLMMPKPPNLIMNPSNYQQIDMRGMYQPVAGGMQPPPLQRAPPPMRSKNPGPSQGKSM
UniProt Q8IV32: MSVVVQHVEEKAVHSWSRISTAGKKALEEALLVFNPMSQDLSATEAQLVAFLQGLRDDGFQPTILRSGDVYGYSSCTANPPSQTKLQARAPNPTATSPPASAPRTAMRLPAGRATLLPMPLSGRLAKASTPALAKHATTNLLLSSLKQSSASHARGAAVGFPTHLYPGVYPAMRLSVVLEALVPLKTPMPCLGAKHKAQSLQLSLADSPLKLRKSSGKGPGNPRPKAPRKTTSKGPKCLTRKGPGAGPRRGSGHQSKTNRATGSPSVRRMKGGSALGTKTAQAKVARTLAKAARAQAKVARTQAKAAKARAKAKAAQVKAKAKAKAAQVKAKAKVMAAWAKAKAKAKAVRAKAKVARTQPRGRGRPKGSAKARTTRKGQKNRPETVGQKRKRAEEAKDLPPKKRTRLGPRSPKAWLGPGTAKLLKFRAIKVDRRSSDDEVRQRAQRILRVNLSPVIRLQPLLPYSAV
UniProt O60934: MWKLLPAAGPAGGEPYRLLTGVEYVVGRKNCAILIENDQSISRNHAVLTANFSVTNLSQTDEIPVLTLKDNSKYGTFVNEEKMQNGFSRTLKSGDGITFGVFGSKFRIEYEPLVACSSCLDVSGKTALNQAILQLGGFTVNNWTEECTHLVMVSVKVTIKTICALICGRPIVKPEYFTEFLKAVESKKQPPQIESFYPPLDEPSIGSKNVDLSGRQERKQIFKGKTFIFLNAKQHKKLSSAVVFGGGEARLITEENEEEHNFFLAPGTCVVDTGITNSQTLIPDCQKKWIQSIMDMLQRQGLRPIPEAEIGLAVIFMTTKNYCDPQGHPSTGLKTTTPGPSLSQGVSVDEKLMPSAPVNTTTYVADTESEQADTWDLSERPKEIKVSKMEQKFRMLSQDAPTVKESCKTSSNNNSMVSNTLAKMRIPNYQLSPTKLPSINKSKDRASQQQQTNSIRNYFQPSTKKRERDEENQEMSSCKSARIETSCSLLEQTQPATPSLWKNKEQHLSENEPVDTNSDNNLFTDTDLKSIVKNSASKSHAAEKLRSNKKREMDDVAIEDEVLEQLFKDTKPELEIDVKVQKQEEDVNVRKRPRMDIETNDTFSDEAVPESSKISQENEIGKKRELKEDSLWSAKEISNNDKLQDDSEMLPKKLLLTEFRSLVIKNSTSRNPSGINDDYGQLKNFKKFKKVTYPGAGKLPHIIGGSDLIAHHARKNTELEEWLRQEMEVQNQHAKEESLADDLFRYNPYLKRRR
UniProt Q13547: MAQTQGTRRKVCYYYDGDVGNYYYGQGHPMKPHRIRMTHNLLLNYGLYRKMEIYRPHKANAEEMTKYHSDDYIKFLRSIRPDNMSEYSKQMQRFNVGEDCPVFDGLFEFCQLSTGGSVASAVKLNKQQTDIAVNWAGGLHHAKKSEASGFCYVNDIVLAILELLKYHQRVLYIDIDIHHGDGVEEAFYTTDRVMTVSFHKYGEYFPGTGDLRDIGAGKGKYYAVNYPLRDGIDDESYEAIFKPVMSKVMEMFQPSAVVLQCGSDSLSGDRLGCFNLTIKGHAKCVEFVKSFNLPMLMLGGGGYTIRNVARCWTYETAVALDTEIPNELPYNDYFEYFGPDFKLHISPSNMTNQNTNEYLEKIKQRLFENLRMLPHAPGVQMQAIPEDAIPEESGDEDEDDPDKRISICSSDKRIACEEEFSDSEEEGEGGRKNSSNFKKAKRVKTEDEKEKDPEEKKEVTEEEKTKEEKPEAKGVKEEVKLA

Results are given in words; binding and its absence hold for the method and conditions named. Binding seen in cells or lysates may run through a third protein. Some results given as binding are weak or reduced against the parent protein; the word gives no strength. For some assays here: Where a sequence is shown, tags or fusion partners need not be part of it.

In the case of “NBS1 component of the MRN complex (from UniProt O60934 1-754)”, the binding entry in test [1] is “binds”.

For the molecule “FLAG-CCDC71 (exogenous) (from UniProt Q8IV32 1-467)”, the binding result in test [2] is “binds”.

For the molecule “HDAC1 histone deacetylase (from UniProt Q13547 1-482)”, the binding entry in test [3] is “binds”.

Consider “FLAG-ATRX (recombinant, SF9 insect cells) (from UniProt P46100 1-2492)”, for which, in test [4], the binding entry was “binds”.

Take “CCDC71 (endogenous) (from UniProt Q8IV32 1-467)”: the binding result in test [1] is “binds”.

In the case of “ZFHX4 transcription factor (from UniProt Q86UP3 1-3567)”, the binding entry in test [1] was “binds”.

B1: ZBTB4 (protein, UniProt Q9P1Z0 1-1013)
chain: MPPPAEVTDPSHAPAVLRQLNEQRLRGLFCDVTLIAGDTKFPAHRSVLAASSPFFREALLTSAPLPLPPATGGAAPNPATTTAASSSSSSSSSSSSSSSSASSSSSSSSSSPPPASPPASSPPRVLELPGVPAAAFSDVLNFIYSARLALPGGGGDGAAVAEIGALGRRLGISRLQGLGEGGDAWVPPTPAPMATSQPEEDSFGPGPRPAGEWEGDRAEAQAPDLQCSLPRRPLPCPQCGKSFIHPKRLQTHEAQCRRGASTRGSTGLGAGGAGPGGPAGVDASALPPPVGFRGGPEHVVKVVGGHVLYVCAACERSYVTLSSLKRHSNVHSWRRKYPCRYCEKVFALAEYRTKHEVWHTGERRYQCIFCWETFVTYYNLKTHQRAFHGISPGLLASEKTPNGGYKPKLNTLKLYRLLPMRAAKRPYKTYSQGAPEAPLSPTLNTPAPVAMPASPPPGPPPAPEPGPPPSVITFAHPAPSVIVHGGSSSGGGGSGTASTGGSQAASVITYTAPPRPPKKREYPPPPPEPAATPTSPATAVSPATAAGPAMATTTEEAKGRNPRAGRTLTYTAKPVGGIGGGGGPPTGAGRGPSQLQAPPPLCQITVRIGEEAIVKRRISETDLRPGELSGEEMEESEEDEEEEDEEEEEEDEEESKAGGEDQLWRPYYSYKPKRKAGAAGGASVGGSGLPRGRRPPRWRQKLERRSWEETPAAESPAGRARTERRHRCGDCAQTFTTLRKLRKHQEAHGGGSHSSRAGRRPSTRFTCPHCAKVCKTAAALSRHGQRHAAERPGGTPTPVIAYSKGSAGTRPGDVKEEAPQEMQVSSSSGEAGGGSTAAEEASETASLQDPIISGGEEPPVVASGGSYVYPPVQEFPLALIGGGREPGGGRGKSGSEGPVGAGEGDRMEGIGAAKVTFYPEPYPLVYGPQLLAAYPYNFSNLAALPVALNMVLPDEKGAGALPFLPGVFGYAVNPQAAPPAPPTPPPPTLPPPIPPKGEGERAGVERTQKGDVG
As to B1, the binding result in test [1] is “binds”.

B2: FLAG-FAM207A (exogenous) (protein, UniProt Q9NSI2 1-230)
chain: T1 sequence (chain, biotinylated lysine (incorporated during translation))
Take B2: in test [2], the binding result is recorded as “binds”.

B3: IMP3 U3 snoRNP protein (protein, UniProt Q9NV31 1-184)
chain: MVRKLKFHEQKLLKQVDFLNWEVTDHNLHELRVLRRYRLQRREDYTRYNQLSRAVRELARRLRDLPERDQFRVRASAALLDKLYALGLVPTRGSLELCDFVTASSFCRRRLPTVLLKLRMAQHLQAAVAFVEQGHVRVGPDVVTDPAFLVTRSMEDFVTWVDSSKIKRHVLEYNEERDDFDLEA
For B3, the binding result in test [1] was “binds”.

B4: SLF2 (SMC5/6 localization factor 2), endogenous (protein, UniProt Q8IX21 1-1173)
chain: MTRRCMPARPGFPSSPAPGSSPPRCHLRPGSTAHAAAGKRTESPGDRKQSIIDFFKPASKQDRHMLDSPQKSNIKYGGSRLSITGTEQFERKLSSPKESKPKRVPPEKSPIIEAFMKGVKEHHEDHGIHESRRPCLSLASKYLAKGTNIYVPSSYHLPKEMKSLKKKHRSPERRKSLFIHENNEKNDRDRGKTNADSKKQTTVAEADIFNNSSRSLSSRSSLSRHHPEESPLGAKFQLSLASYCRERELKRLRKEQMEQRINSENSFSEASSLSLKSSIERKYKPRQEQRKQNDIIPGKNNLSNVENGHLSRKRSSSDSWEPTSAGSKQNKFPEKRKRNSVDSDLKSTRESMIPKARESFLEKRPDGPHQKEKFIKHIALKTPGDVLRLEDISKEPSDETDGSSAGLAPSNSGNSGHHSTRNSDQIQVAGTKETKMQKPHLPLSQEKSAIKKASNLQKNKTASSTTKEKETKLPLLSRVPSAGSSLVPLNAKNCALPVSKKDKERSSSKECSGHSTESTKHKEHKAKTNKADSNVSSGKISGGPLRSEYGTPTKSPPAALEVVPCIPSPAAPSDKAPSEGESSGNSNAGSSALKRKLRGDFDSDEESLGYNLDSDEEEETLKSLEEIMALNFNQTPAATGKPPALSKGLRSQSSDYTGHVHPGTYTNTLERLVKEMEDTQRLDELQKQLQEDIRQGRGIKSPIRIGEEDSTDDEDGLLEEHKEFLKKFSVTIDAIPDHHPGEEIFNFLNSGKIFNQYTLDLRDSGFIGQSAVEKLILKSGKTDQIFLTTQGFLTSAYHYVQCPVPVLKWLFRMMSVHTDCIVSVQILSTLMEITIRNDTFSDSPVWPWIPSLSDVAAVFFNMGIDFRSLFPLENLQPDFNEDYLVSETQTTSRGKESEDSSYKPIFSTLPETNILNVVKFLGLCTSIHPEGYQDREIMLLILMLFKMSLEKQLKQIPLVDFQSLLINLMKNIRDWNTKVPELCLGINELSSHPHNLLWLVQLVPNWTSRGRQLRQCLSLVIISKLLDEKHEDVPNASNLQVSVLHRYLVQMKPSDLLKKMVLKKKAEQPDGIIDDSLHLELEKQAYYLTYILLHLVGEVSCSHSFSSGQRKHFVLLCGALEKHVKCDIREDARLFYRTKVKDLVARIHGKWQEIIQNCRPTQGQLHDFWVPDS
Regarding B4, in test [1], the binding entry is “binds”.

B5: myc-tagged SLF2 (exogenous) (protein, UniProt Q8IX21 1-1173)
chain: B4 chain
On to B5, for which the binding result in test [2] is “binds”.

The values above are taken from paper PMC8629390.
